The other results are listed elsewhere or left out. Residues, ends and D or L forms follow the SMILES beside them. *: point of attachment. Cbz = O=C(OCc1ccccc1)*
Legend:
Experiment in all cases: log2 fold change, soluble protein after heating vs DMSO (PISA); higher = thermal stabilisation; K562 cells, 10 uM, 30 min; active = over 0.2 and 3.5 SD of the protein, either way, in both replicates (recomputed)
[1] = compound: CC1=C(C(CC(=O)N1)C2=CC=C(C=C2)C(F)(F)F)C(=O)NC3=C(C=C4C(=C3)C=NN4)F
Method in brief: (§1)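 Quantification of soluble protein used TMTpro 16plex LC-MS/MS, with channel sums equalised. Samples were the supernatant after 21,000xg for 90 min of pooled aliquots from K562 cells (2×10^6 cells/mL) treated with 10 μM compound for 30 min, heated for 3 min over 48°C-58°C, and extracted in PBS with 0.5% NP-40 at 4°C. Values, from duplicates, describe thermal stability against control samples on a log2 fold-change scale.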

By UniProt entry, the sequences of proteins in these tests, tags left out. Where a name states a change or a piece, a line headed by the entry shows the natural chain unless it says otherwise.
UniProt Q86XR8: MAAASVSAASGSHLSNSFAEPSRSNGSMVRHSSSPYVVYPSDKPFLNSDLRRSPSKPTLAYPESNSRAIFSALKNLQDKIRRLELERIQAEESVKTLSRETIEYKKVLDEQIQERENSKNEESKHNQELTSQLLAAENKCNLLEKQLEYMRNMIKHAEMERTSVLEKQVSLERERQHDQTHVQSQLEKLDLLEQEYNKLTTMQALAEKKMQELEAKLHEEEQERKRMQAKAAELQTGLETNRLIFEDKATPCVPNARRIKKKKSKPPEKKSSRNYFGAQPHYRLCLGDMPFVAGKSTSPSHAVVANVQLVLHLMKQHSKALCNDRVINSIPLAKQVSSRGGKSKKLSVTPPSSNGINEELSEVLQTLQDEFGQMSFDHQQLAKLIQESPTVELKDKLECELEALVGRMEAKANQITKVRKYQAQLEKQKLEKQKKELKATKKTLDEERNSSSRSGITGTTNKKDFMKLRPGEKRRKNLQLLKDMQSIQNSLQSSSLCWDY
UniProt Q96HQ2: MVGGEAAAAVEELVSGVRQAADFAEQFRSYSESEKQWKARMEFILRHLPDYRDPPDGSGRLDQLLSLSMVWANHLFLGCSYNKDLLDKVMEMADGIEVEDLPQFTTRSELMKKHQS
UniProt Q8N960: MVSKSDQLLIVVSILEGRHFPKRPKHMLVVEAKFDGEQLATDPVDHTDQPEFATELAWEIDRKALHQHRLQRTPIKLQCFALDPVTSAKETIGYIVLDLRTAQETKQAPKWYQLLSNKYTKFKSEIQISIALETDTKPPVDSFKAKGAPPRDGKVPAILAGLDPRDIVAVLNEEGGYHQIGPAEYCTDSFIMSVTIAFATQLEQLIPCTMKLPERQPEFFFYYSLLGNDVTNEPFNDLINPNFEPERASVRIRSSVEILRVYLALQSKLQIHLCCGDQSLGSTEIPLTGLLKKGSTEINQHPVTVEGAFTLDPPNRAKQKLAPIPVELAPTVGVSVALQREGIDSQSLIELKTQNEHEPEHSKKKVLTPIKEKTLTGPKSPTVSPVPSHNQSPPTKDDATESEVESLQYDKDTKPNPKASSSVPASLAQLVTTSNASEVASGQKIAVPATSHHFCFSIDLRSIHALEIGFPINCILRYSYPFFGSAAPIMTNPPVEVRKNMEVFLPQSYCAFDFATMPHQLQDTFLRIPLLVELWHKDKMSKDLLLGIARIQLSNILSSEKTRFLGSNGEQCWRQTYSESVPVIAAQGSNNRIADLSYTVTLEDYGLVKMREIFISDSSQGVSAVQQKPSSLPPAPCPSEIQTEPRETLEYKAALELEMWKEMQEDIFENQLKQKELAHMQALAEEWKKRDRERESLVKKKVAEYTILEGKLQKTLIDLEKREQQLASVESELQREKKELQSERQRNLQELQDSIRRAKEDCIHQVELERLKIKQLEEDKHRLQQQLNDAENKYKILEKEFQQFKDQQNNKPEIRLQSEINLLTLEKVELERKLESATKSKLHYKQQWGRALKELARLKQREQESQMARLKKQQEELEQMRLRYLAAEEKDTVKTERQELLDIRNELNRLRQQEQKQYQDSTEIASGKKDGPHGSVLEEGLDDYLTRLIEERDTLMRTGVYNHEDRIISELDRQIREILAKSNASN
UniProt O75419: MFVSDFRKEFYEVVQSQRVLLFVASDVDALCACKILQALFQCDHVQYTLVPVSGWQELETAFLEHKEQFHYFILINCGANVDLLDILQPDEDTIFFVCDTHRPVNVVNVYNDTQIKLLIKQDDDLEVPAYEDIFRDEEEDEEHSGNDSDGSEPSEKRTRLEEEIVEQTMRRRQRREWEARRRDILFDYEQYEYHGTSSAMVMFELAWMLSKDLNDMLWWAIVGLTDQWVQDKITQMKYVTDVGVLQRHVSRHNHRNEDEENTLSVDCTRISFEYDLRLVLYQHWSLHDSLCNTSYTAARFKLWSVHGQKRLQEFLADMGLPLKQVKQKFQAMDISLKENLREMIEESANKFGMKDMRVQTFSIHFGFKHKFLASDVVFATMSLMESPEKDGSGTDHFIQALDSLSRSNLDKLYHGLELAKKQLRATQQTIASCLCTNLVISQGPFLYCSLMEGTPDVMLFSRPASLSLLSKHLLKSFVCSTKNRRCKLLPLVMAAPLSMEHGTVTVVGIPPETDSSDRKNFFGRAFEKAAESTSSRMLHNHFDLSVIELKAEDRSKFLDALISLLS
UniProt P49918: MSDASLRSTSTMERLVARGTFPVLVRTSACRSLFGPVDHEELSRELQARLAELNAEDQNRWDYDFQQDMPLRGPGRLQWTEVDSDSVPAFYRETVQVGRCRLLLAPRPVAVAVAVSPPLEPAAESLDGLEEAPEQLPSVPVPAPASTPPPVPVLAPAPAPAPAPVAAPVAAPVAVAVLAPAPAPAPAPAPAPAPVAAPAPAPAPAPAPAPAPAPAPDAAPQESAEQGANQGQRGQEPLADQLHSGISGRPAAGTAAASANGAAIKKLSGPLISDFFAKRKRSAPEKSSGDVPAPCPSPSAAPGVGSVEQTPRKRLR
UniProt Q9HCK8: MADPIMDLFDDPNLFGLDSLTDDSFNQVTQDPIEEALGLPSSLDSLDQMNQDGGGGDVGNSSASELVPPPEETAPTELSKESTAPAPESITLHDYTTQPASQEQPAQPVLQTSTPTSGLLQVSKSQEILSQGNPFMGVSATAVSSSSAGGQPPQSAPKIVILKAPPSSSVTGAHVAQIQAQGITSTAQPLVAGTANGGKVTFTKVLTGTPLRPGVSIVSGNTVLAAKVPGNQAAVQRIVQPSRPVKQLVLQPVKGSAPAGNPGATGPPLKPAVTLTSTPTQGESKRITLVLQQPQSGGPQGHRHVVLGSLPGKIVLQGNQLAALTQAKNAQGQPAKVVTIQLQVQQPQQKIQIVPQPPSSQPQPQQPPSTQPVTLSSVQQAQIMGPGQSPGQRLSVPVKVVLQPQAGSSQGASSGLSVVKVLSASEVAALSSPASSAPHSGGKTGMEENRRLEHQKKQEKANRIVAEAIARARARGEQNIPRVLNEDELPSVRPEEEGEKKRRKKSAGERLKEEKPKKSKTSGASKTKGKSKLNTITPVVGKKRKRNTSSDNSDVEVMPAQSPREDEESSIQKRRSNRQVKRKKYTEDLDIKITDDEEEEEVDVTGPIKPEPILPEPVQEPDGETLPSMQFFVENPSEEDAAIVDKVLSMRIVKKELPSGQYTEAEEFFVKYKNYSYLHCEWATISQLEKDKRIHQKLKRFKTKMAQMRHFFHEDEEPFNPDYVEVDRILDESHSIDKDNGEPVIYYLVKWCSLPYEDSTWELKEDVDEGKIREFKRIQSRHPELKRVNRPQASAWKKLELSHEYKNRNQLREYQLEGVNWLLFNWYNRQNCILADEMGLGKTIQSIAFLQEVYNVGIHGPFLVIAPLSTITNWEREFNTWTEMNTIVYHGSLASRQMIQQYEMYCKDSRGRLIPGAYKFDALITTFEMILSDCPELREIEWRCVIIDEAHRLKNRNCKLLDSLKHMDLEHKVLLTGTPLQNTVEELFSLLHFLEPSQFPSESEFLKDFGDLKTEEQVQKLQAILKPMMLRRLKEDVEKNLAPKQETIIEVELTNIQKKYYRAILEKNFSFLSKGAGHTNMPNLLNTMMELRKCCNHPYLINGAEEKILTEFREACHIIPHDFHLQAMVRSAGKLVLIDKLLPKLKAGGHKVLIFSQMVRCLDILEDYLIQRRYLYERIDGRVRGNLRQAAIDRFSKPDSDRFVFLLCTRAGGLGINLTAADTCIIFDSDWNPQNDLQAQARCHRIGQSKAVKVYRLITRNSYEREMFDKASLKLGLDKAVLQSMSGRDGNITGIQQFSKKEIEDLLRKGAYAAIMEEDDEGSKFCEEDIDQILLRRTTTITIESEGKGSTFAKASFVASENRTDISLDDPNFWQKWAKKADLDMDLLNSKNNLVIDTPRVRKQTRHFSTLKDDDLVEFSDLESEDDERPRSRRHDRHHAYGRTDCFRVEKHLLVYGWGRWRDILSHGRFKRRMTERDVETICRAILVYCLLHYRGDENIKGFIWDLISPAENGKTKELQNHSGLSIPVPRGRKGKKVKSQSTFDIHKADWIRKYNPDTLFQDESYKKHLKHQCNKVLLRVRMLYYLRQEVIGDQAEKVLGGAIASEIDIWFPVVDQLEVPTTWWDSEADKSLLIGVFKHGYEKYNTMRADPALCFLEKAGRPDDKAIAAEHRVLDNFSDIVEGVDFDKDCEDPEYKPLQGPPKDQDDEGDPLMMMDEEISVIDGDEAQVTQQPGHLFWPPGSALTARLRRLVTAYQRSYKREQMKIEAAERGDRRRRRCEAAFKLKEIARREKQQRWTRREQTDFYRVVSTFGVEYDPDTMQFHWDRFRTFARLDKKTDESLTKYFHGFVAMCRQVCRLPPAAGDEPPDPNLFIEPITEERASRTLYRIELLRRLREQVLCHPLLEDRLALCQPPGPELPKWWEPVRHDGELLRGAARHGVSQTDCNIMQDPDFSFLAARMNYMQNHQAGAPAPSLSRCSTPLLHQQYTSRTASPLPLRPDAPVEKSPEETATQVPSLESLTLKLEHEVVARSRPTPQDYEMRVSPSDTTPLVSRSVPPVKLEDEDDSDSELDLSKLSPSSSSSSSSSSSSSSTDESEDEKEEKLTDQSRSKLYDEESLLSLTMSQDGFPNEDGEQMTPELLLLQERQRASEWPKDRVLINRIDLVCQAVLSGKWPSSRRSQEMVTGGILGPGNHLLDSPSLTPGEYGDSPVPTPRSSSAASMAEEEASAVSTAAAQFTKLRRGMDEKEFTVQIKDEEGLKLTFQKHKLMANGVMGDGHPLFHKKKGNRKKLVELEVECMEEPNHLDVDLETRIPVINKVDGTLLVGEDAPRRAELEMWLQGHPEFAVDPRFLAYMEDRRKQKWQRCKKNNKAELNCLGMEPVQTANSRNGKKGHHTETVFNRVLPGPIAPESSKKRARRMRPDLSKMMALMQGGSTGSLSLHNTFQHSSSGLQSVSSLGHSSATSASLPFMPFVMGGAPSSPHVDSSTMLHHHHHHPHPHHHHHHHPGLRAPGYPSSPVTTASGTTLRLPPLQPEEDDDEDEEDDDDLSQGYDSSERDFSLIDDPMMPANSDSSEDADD

[2] = compound: C/C(=N\NC(=O)C1=CC(=CC=C1)S(=O)(=O)N2CCOCC2)/C3=C(C=CC(=C3)Cl)O
Method in brief: as §1

[3] = compound: C1=CC(=C(C=C1Cl)C2=NC3=NC=CN=C3C(=N2)NC4=CC=NC=C4)F
Method in brief: as §1

[4] = compound: C1=CC2=C(C=CC(=C2)/C=C\3/C(=O)NC(=NCC4=CC=CS4)S3)N=C1
Method in brief: as §1

[5] = compound: C1=CC2=NC=CN=C2C=C1/C=C/3\C(=O)NC(=O)S3
Method in brief: as §1

[6] = compound: C1=CC=C(C=C1)C2=NC(=C(N2)C3=CC=NC=C3)C4=CC(=C(C=C4)Cl)O
Method in brief: as §1

[7] = compound: C1=CC=C2C(=C1)C3=NNC4=CC=CC(=C43)C2=O
Method in brief: as §1

[8] = compound: C1CCN(C1)C(=O)NC2=CC=CC(=C2)NC3=NC=C(C(=N3)NCCC4=CN=CN4)Br
Method in brief: as §1

[9] = compound: C1CN(CCC1(CC2=CC=C(C=C2)Cl)N)C3=NC=NC4=C3C=CN4
Method in brief: as §1

IRAK-1-4 Inhibitor I = compound: C1COCCN1CCN2C3=CC=CC=C3N=C2NC(=O)C4=CC(=CC=C4)[N+](=O)[O-] [IRAK-1-4 Inhibitor I]
Method in brief: as §1

ibrutinib = compound: C=CC(=O)N1CCC[C@@H](n2nc(-c3ccc(Oc4ccccc4)cc3)c3c(N)ncnc32)C1 [ibrutinib]
Method in brief: as §1

[10] = compound: CC(=O)c1cnc2ccc(-c3cc(Cl)c(O)c(Cl)c3)nc2c1N[C@H]1CC[C@H](CN(C)C)CC1
Method in brief: as §1

ralimetinib = compound: CC(C)(C)Cn1c(N)nc2ccc(-c3[nH]c(C(C)(C)C)nc3-c3ccc(F)cc3)nc21 [ralimetinib]
Method in brief: as §1

[11] = compound: CC(C)(O)CC(=O)NCCn1ccc2ncnc(Nc3ccc(Oc4cccc(C(F)(F)F)c4)c(Cl)c3)c21
Method in brief: as §1

[12] = compound: CC(C)C[C@@H](C=O)NC(=O)[C@H](CC(C)C)NC(=O)[C@H](CC(C)C)NC(=O)OCc1ccccc1
Method in brief: as §1

pinometostat = compound: CC(C)N(C[C@H]1O[C@@H](n2cnc3c(N)ncnc32)[C@H](O)[C@@H]1O)[C@H]1C[C@@H](CCc2nc3cc(C(C)(C)C)ccc3[nH]2)C1 [pinometostat]
Method in brief: as §1

[13] = compound: CC1=C(C2=C(C=C1)C(=O)C3=CC=CC=C3N2CCCN)C
Method in brief: as §1

erlotinib = compound: C#Cc1cccc(Nc2ncnc3cc(OCCOC)c(OCCOC)cc23)c1 [erlotinib]
Method in brief: as §1

[14] = compound: C1=CC(=CC=C1C2=NC3=C(N2)C=C(C=C3)C(=O)N)OC4=CC=C(C=C4)Cl
Method in brief: as §1

[15] = compound: CC(C)C1=C2N=C(C=C(N2N=C1)NCC3=CC=CC=C3)NCCCCCCN
Method in brief: as §1

Measured: log2 fold change

CEP57 (UniProt Q86XR8)
inactive: [1] 0.114

CDKN2AIPNL (UniProt Q96HQ2)
inactive: [1] 0.045

CEP120 (UniProt Q8N960)
inactive: [2] -0.154 | [3] 0.143 | [4] 0.24 | [5] 0.006 | [6] 0.093 | [7] 0.055 | [8] 0.033 | [9] 0.346 | IRAK-1-4 Inhibitor I 0.036 | ibrutinib -0.004 | [10] -0.003 | ralimetinib 0.151 | [11] -0.302 | [12] -0.071 | pinometostat 0.002 | [13] 0.104

CDC45 isoform 3 (UniProt O75419)
inactive: [2] 0.12 | [3] -0.16 | [4] -0.099 | [6] -0.065 | [7] 0.257 | [8] -0.037 | [9] -0.008 | IRAK-1-4 Inhibitor I -0.216 | [10] -0.129 | ralimetinib 0.084 | [11] 0.014 | [12] 0.088 | pinometostat 0.31 | [1] 0.116 | [13] -0.2

CFL1 (UniProt E9PP50)
inactive: erlotinib 0.325 | [14] -0.151 | [15] 0.16 | [1] -0.092

CDKN1C (UniProt P49918)
inactive: [3] -0.079 | [5] -0.063 | [6] -0.001 | ibrutinib 0.026 | ralimetinib -0.131 | [11] -0.029 | [12] 0.155

Quoted at random: 2 records from the list, in no set order.
CEP120 (UniProt Q8N960)
inactive: [2] -0.154 | [3] 0.143 | [4] 0.24 | [5] 0.006 | [6] 0.093 | [7] 0.055 | [8] 0.033 | [9] 0.346 | IRAK-1-4 Inhibitor I 0.036 | ibrutinib -0.004 | [10] -0.003 | ralimetinib 0.151 | [11] -0.302 | [12] -0.071 | pinometostat 0.002 | [13] 0.104

CFL1 (UniProt E9PP50)
inactive: erlotinib 0.325 | [14] -0.151 | [15] 0.16 | [1] -0.092

Following part

CHD8 (UniProt Q9HCK8)
inactive: [3] 0.069 | [5] 0.12 | [6] 0 | ibrutinib -0.095 | ralimetinib -0.063 | [11] -0.037 | [12] 0.012

CEP170 isoform 3 (UniProt Q5SW79)
inactive: erlotinib -0.002 | [14] 0.026 | [5] -0.344 | IRAK-1-4 Inhibitor I 0.161 | ibrutinib 0.002 | [15] -0.031 | pinometostat 0.461

— the supplement of paper PMC10849652
